PubChem BioAssay AID743121, NCATS – 2013
In all, the deposit lists about 26,000 reagents; this is a random part of them. In the full data, 167 (0.63%) are marked active. 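Calls are per gene from RSA p-values that are not deposited; an individual active-marked siRNA can sensitise only weakly.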 Reagents against one gene are numbered here. Further read-outs or replicates are left out here. No sequences are given here.

Purpose: 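Knock-downs that sensitise breast cancer cells to camptothecin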 (primary screen)
Cells: MDA-MB-231 cells, a human breast cancer line
Reagents: single siRNA against human genes, 20 nM siRNA (0.8 pmol per well)
Duration: 120 h (drug added 48 h after transfection, read 72 h later)
Challenge: camptothecin 20 nM (about EC30) for 72 h; vehicle 0.1% DMSO in parallel plates
Measurement: 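CellTiter-Glo ATP signal, scaled to control siRNA as percent viability; sensitisation given as log2 of untreated divided by camptothecin-treated viability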
Reading the numbers: log2 vehicle/camptothecin viability: higher = stronger sensitisation to camptothecin; viability with camptothecin: higher = more viable cells
Rule for the call: 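Active genes have an RSA gene-level p-value below 0.001, computed from the ratios of their separate siRNAs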

Against TSG101 #1 the deposit lists log2 vehicle/camptothecin viability 0.167; viability with camptothecin (% of control) = 19.8; active.
Against TSG101 #2, the entry reads log2 vehicle/camptothecin viability 0.532; viability with camptothecin (% of control) = 28.6; active.
TSG101 #3 gave log2 vehicle/camptothecin viability 1.43; viability with camptothecin (% of control) = 10.4; active.
TSG101 #4 showed log2 vehicle/camptothecin viability 1.2; viability with camptothecin (% of control) = 16.1; active.
BAD #1 showed log2 vehicle/camptothecin viability -0.232; viability with camptothecin (% of control) = 61; inactive.
Silencing of BAD #2 came out at: log2 vehicle/camptothecin viability -0.099; viability with camptothecin (% of control) = 76.6; inactive.
Knock-down of BAD #3 gave: log2 vehicle/camptothecin viability -0.485; viability with camptothecin (% of control) = 67.8; inactive.
With knock-down of BAD #4 the results were log2 vehicle/camptothecin viability 0.00542; viability with camptothecin (% of control) = 108; inactive.
With knock-down of GPRC5D #1, the screen gave log2 vehicle/camptothecin viability -0.113; viability with camptothecin (% of control) = 92.4; inactive.
After knock-down of GPRC5D #2, the screen gave log2 vehicle/camptothecin viability 0.234; viability with camptothecin (% of control) = 41.8; inactive.
GPRC5D #3 scored log2 vehicle/camptothecin viability -0.276; viability with camptothecin (% of control) = 45.4; inactive.
GPRC5D #4 gave log2 vehicle/camptothecin viability -0.164; viability with camptothecin (% of control) = 49.4; inactive.
ADAM9 #1 scored log2 vehicle/camptothecin viability 0.0455; viability with camptothecin (% of control) = 74.1; inactive.
Silencing of ADAM9 #2 resulted in: log2 vehicle/camptothecin viability -0.397; viability with camptothecin (% of control) = 96.8; inactive.
For ADAM9 #3, the values are log2 vehicle/camptothecin viability -0.0478; viability with camptothecin (% of control) = 86.5; inactive.

2 entries already listed, arranged by “log2 vehicle/camptothecin viability”, low to high:
BAD #1 | log2 vehicle/camptothecin viability = -0.232; viability with camptothecin (% of control) = 61; Call = inactive
BAD #2 | log2 vehicle/camptothecin viability = -0.099; viability with camptothecin (% of control) = 76.6; Call = inactive
